Laboratory results reported in the supplement of paper PMC10735217.
This is one part of the list. Single values are uncertain here, since repeats match poorly.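 In a drug-repurposing library screen, luminescence reads luciferase driven by eight TEAD-binding elements, stably integrated into human kidney-derived cells. Compounds scoring over five robust Z scores above the plate mean are called hits.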

Tested on: HEK293A TEAD-LUC reporter
Assay: TEAD-luciferase reporter activity (YAP activation), robust Z score vs plate; higher = stronger YAP/TEAD activation
Details: 24 h

CC(C)=CCOc1cc(NC(=S)c2ccccc2C)ccc1Cl
TEAD-luciferase reporter activity (compound concentration: 200 nM): inactive: 0.256 | TEAD-luciferase reporter activity (compound concentration: 2 uM): inactive: -0.755 | TEAD-luciferase reporter activity (compound concentration: 10 uM): inactive: 0.244

O=C(O)c1cc(-c2ccccc2)nc2ccccc12
TEAD-luciferase reporter activity (compound concentration: 200 nM): inactive: -0.148 | TEAD-luciferase reporter activity (compound concentration: 2 uM): inactive: -1.06 | TEAD-luciferase reporter activity (compound concentration: 10 uM): inactive: -0.282

Cc1c2oc3c(C)ccc(C(=O)N[C@@H]4C(=O)N[C@H](C(C)C)C(=O)N5CCC[C@H]5C(=O)N(C)CC(=O)N(C)[C@@H](C(C)C)C(=O)O[C@@H]4C)c3nc-2c(C(=O)N[C@@H]2C(=O)N[C@H](C(C)C)C(=O)N3CCC[C@H]3C(=O)N(C)CC(=O)N(C)[C@@H](C(C)C)C(=O)O[C@@H]2C)c(N)c1=O [dactinomycin]
TEAD-luciferase reporter activity (compound concentration: 2 uM): inactive: -2.49

Cc1c2oc3c(C)ccc(C(=O)N[C@@H]4C(=O)N[C@H](C(C)C)C(=O)N5CCC[C@H]5C(=O)N(C)CC(=O)N(C)[C@@H](C(C)C)C(=O)O[C@@H]4C)c3nc-2c(C(=O)N[C@@H]2C(=O)N[C@H](C(C)C)C(=O)N3CCC[C@H]3C(=O)N(C)CC(=O)N(C)[C@@H](C(C)C)C(=O)O[C@@H]2C)c(N)c1=O
TEAD-luciferase reporter activity (compound concentration: 200 nM): inactive: 0.816 | TEAD-luciferase reporter activity (compound concentration: 10 uM): inactive: -2.44

CC(C)OC(=O)CNC(=O)[C@H](CS)NC(=O)CC[C@H](N)C(=O)O [Glutathione monoisopropyl ester]
TEAD-luciferase reporter activity (compound concentration: 200 nM): inactive: -2.04 | TEAD-luciferase reporter activity (compound concentration: 2 uM): inactive: -0.237 | TEAD-luciferase reporter activity (compound concentration: 10 uM): inactive: -0.278

CC(C)Nc1cc(-c2c[nH]c(C(=O)N[C@H](CO)c3cccc(Cl)c3)c2)c(Cl)cn1
TEAD-luciferase reporter activity (compound concentration: 200 nM): inactive: 0.625 | TEAD-luciferase reporter activity (compound concentration: 2 uM): inactive: -0.092 | TEAD-luciferase reporter activity (compound concentration: 10 uM): inactive: 1.01

CN(C)CCCN1c2ccccc2CCc2ccc(C#N)cc21
TEAD-luciferase reporter activity (compound concentration: 200 nM): inactive: -1.08 | TEAD-luciferase reporter activity (compound concentration: 2 uM): inactive: -0.961 | TEAD-luciferase reporter activity (compound concentration: 10 uM): inactive: 3.35

COC(=O)C1=C(C)N(C)C(C)=C(C(=O)OC)C1c1ccc(C(F)(F)F)cc1
TEAD-luciferase reporter activity (compound concentration: 200 nM): inactive: -3.16 | TEAD-luciferase reporter activity (compound concentration: 2 uM): inactive: -1.15 | TEAD-luciferase reporter activity (compound concentration: 10 uM): inactive: 2.89

CCCCCCCC/C=C\CCCCCCCC(=O)NCc1ccc(OCCN)c(OC)c1
TEAD-luciferase reporter activity (compound concentration: 200 nM): inactive: -0.832 | TEAD-luciferase reporter activity (compound concentration: 2 uM): inactive: -0.667 | TEAD-luciferase reporter activity (compound concentration: 10 uM): inactive: 3.58

CCn1c(C(=O)N(C2CC2)C2CC2)cc2c3c(ncn3C)c(Nc3cc(C)n(C)n3)nc21
TEAD-luciferase reporter activity (compound concentration: 200 nM): inactive: 0.105 | TEAD-luciferase reporter activity (compound concentration: 2 uM): inactive: -1.78 | TEAD-luciferase reporter activity (compound concentration: 10 uM): inactive: -0.716

O=C(NC1CCCN(CCc2ccccc2)C1)c1cc2ccccc2o1 (stereo unspecified)
TEAD-luciferase reporter activity (compound concentration: 200 nM): inactive: 0.175 | TEAD-luciferase reporter activity (compound concentration: 2 uM): inactive: -1.37 | TEAD-luciferase reporter activity (compound concentration: 10 uM): inactive: 1.69

CC1=CC[C@@](O)(C(C)C)CC1 [4-Carvomenthenol]
TEAD-luciferase reporter activity (compound concentration: 200 nM): inactive: -2.64 | TEAD-luciferase reporter activity (compound concentration: 2 uM): inactive: -0.752 | TEAD-luciferase reporter activity (compound concentration: 10 uM): inactive: -1.26

CCCCCCCCCCCCCCSCC(=O)O [Tetradecylthioacetic acid]
TEAD-luciferase reporter activity (compound concentration: 200 nM): inactive: 2.37 | TEAD-luciferase reporter activity (compound concentration: 2 uM): inactive: -0.768 | TEAD-luciferase reporter activity (compound concentration: 10 uM): inactive: -1.84
